Test results published in paper PMC8185074, “Anchor extension: a structure-guided approach to design cyclic peptides targeting enzyme active sites” (Nature Communications, 2021).

Sequences of proteins named here, by UniProt entry; tags and fusion partners are left off.
UniProt Q92769, whole entry: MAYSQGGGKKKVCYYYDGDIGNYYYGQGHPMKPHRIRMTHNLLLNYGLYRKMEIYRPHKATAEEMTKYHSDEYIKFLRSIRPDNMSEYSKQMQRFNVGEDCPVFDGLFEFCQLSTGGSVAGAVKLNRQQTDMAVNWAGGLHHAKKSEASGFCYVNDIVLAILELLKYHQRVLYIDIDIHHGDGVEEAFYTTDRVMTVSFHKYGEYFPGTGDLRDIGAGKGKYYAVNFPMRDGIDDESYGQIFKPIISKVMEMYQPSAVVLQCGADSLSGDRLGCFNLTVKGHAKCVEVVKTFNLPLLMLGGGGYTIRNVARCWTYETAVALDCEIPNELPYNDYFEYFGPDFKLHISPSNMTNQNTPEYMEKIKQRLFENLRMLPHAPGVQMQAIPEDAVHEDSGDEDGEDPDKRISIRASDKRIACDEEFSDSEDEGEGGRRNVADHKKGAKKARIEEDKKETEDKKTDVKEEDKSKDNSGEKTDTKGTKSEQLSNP

Target: T1, HDAC2 (Homo sapiens, UniProt Q92769)
T1 construct: purchased Reaction Biology Corporation (assay run by the CRO)
Assay: Initial HDAC2 IC50 estimate (BPS Biosciences HDAC fluorogenic assay kit)
Format: biochemical
Conditions: HDAC2 activity (initial activity), Supplementary Dataset 2
Experimental: Initial IC50 values were estimated using HDAC fluorogenic assay kits from BPS Biosciences (HDAC2, HDAC4, and HDAC6) following the protocol described in the kit. All the measures were performed in duplicates or triplicates. These measurements were done either on full range of concentrations (1:10 dilution from 1 µM to 100 pM) or on two concentrations only (20 nM and 200 nM) as an estimate of the range. […] Source Data are provided as a Source Data file.

## CC(C)C[C@@H]1NC(=O)[C@H](CCCCCS)NC(=O)[C@@H](C)NC(=O)[C@H](CCCNC(=N)N)NC(=O)[C@H](CC(=O)O)NC(=O)[C@@H]2CCCN2C(=O)[C@@H]2CCCN2C(=O)[C@H](CO)NC(=O)[C@@H](CCC(=O)O)NC(=O)[C@@H](CC(=O)O)NC(=O)[C@H](CCCN)NC(=O)[C@@H](CC(N)=O)NC(=O)[C@H](C(C)C)NC1=O [des1.4.0, SHA-Leu-Val-dAsn-Orn-dAsp-dGlu-Ser-Pro-Pro-Asp-Arg-dAla]
  IC50: 100 µM
